Assay results reported in patent US20040115733A1.
These are yes or no findings as the source states them, for the method shown. In cells and extracts the contact can be indirect. Some entries that bind do so weakly or less than the wild type.

Key:
[1] = biological target: T1, prohibitin, endogenously expressed in HeLa cells (human (HeLa cells)) (UniProt P35232); experiment: co-immunoprecipitation from HeLa lysates with anti-prohibitin mAb, anti-ShcA-SH2 immunoblot; visible increase upon H2O2 treatment
T1 sequence: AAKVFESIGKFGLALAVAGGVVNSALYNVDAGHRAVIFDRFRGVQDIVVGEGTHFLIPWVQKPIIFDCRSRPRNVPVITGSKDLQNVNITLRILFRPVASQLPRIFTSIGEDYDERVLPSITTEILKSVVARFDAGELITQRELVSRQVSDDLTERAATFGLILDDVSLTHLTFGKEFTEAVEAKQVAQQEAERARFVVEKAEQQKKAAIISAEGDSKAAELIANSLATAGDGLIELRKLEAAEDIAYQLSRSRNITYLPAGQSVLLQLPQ

[2] = biological target: T1, prohibitin, endogenously expressed in HeLa cells (human (HeLa cells)); experiment: co-immunoprecipitation, SDS-PAGE (legend of FIG. 3)
[3] = biological target: T1, prohibitin, endogenously expressed in HeLa cells (human (HeLa cells)); experiment: co-immunoprecipitation from HeLa lysates (description of FIG. 3)

Measured: binding

B1: p52^ShcA, endogenously expressed in HeLa cells (protein, human (HeLa cells), UniProt P29353-2 1-473, looked up)
chain: MNKLSGGGGRRTRVEGGQLGGEEWTRHGSFVNKPTRGWLHPNDKVMGPGVSYLVRYMGCVEVLQSMRALDFNTRTQVTREAISLVCEAVPGAKGATRRRKPCSRPLSSILGRSNLKFAGMPITLTVSTSSLNLMAADCKQIIANHHMQSISFASGGDPDTAEYVAYVAKDPVNQRACHILECPEGLAQDVISTIGQAFELRFKQYLRNPPKLVTPHDRMAGFDGSAWDEEEEEPPDHQYYNDFPGKEPPLGGVVDMRLREGAAPGAARPTAPNAQTPSHLGATLPVGQPVGGDPEVRKQMPPPPPCPGRELFDDPSYVNVQNLDKARQAVGGAGPPNPAINGSAPRDLFDMKPFEDALRVPPPPQSVSMAEQLRGEPWFHGKLSRREAEALLQLNGDFLVRESTTTPGQYVLTGLQSGQPKHLLLVDPEGVVRTKDHRFESVSHLISYHMDNHLPIISAGSELCLQQPVERKL
binds: [1] | [2] | [3]

B2: p46^ShcA, endogenously expressed in HeLa cells (protein, human (HeLa cells), UniProt P29353-3 1-428, looked up)
chain: MGPGVSYLVRYMGCVEVLQSMRALDFNTRTQVTREAISLVCEAVPGAKGATRRRKPCSRPLSSILGRSNLKFAGMPITLTVSTSSLNLMAADCKQIIANHHMQSISFASGGDPDTAEYVAYVAKDPVNQRACHILECPEGLAQDVISTIGQAFELRFKQYLRNPPKLVTPHDRMAGFDGSAWDEEEEEPPDHQYYNDFPGKEPPLGGVVDMRLREGAAPGAARPTAPNAQTPSHLGATLPVGQPVGGDPEVRKQMPPPPPCPGRELFDDPSYVNVQNLDKARQAVGGAGPPNPAINGSAPRDLFDMKPFEDALRVPPPPQSVSMAEQLRGEPWFHGKLSRREAEALLQLNGDFLVRESTTTPGQYVLTGLQSGQPKHLLLVDPEGVVRTKDHRFESVSHLISYHMDNHLPIISAGSELCLQQPVERKL
binds: [1] | [2] | [3]
